Earlier results as cited in patent US20250059165A1, “PIPERIDINYLPYRIDINYLCARBONITRILE DERIVATIVES AS INHIBITORS OF GLUTAMINYL-PEPTIDE CYCLOTRANSFERASE AND GLUTAMINYL-PEPTIDE CYCLOTRANSFERASE LIKE PROTEIN” (Boehringer Ingelheim International GmbH, priority 2023, published 2025).
Some results were stated once for a whole list of compounds, not compound by compound.

The chains behind the UniProt entries cited, without tags or fusion partners. Where a name states a change or a piece, a line headed by the entry shows the natural chain unless it says otherwise.
UniProt Q9NXS2: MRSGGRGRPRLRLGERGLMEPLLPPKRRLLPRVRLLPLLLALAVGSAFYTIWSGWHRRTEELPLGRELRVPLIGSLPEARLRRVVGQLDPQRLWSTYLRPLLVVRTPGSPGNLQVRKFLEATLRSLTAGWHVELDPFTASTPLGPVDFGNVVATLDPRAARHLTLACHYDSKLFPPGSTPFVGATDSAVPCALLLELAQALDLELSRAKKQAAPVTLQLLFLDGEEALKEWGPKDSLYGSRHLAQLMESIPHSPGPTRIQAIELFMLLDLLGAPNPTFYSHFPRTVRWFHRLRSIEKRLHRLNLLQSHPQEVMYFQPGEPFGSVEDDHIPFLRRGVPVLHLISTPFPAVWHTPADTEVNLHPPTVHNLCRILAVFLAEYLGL

Molecular target: isolated QPCTL (Homo sapiens, UniProt Q9NXS2)
Details: disclosed in WO 2022/086920 [00343]; read-out: inhibitory activity on isolated QPCTL, IC50; cited from earlier work

In the case of `Cn1c(N)nnc1C1CCN(c2ncccc2-c2ccc(F)nc2)CC1` [Prior art Compound 6, reference compound], the IC50 is listed as less than 1 µM.
